Reference: the supplement of paper PMC5949888
± gives the standard deviation of the averaged measurements. Most values lie at the floor of the assay. Slopes are relative: functional sequences can read slightly below zero.

tested on: Saccharomyces cerevisiae PS128 hsf1 delta, HSF1(1-493) fusion; test: growth estimate (transactivation domain function in HSF1 fusion, heat-shock survival) (a.u. (slope of normalised read count over time)); higher = stronger growth at 37°C, i.e. more transactivation activity; conditions: library: random library
Description: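 Random 60-nt DNA library encoding peptides of up to 20 aa, fused to the C-terminus of yeast HSF1 residues 1-493 (C-terminal TAD deleted) and expressed from the native HSF1 promoter on a CEN plasmid in hsf1-deleted S. cerevisiae PS128. Cells were selected at 37°C on -trp 5-FOA plates for 0, 2, 4, 6 and 8 days and amplicons were sequenced. Growth estimate is the slope of a robust linear fit of total-sum-normalised read counts (normalised to the first time point) over time, using at least 2 replicates. Sequences are classed functional (TAD activity) above a threshold of -0.13, set from stop-codon control sequences.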

| Substance | growth estimate |
| --- | --- |
| SRPNTTIGLPQLSYPGVNAA | -0.243 |
| PRGSTIVVTIEVTQKSVVSE | < -0.25 |
| KRQYSG | < -0.25 |
| GLWIVQSDVRRVTSHVSNEC | < -0.25 |
| LGQTT | < -0.25 |
| GKRLGEPFG | < -0.25 |
| TPHGRCRR | < -0.25 |
| PVLKL | < -0.25 |
| GTSGSMDIQSILFNLLH | < -0.25 |
| LALSFQTNAAA | < -0.25 |
| ARFTEHQILHSSCVIS | < -0.25 |
| QRLRDLRALVVTDCR | < -0.25 |
| KMDVGIFSPGHTHRPFGYTT | < -0.25 |
| DAQCNKDERRGYAVVVQIGR | < -0.25 |
| WVRLPPIGPGVCPLVTIRGL | < -0.25 |
| LCLVSLAVTPPGTLISLSHR | < -0.25 |
| AADGVQRYNVEGLHYLRSQN | < -0.25 |
| SSCNA | < -0.25 |
| AVSAARVHAWHPWLPKGSTG | < -0.25 |
| LTRMVSSRTRALPDARVARR | < -0.25 |
| VHFRT | < -0.25 |
| NNTWKGQRQDRVGGADRSFQ | < -0.25 |
| EAVLASTWSGRYFVND | < -0.25 |
| TSRWILCSS | -0.25 |
| SRLTHGDDCCAIYVRS | < -0.25 |
| IFSGHPLVGST | < -0.25 |

| Substance | growth estimate |
| --- | --- |
| RLFGVFVVGL | < -0.25 |
| LTVRSR | < -0.25 |
| RMIMKRPKVIFMASFVHLG | -0.243 |
| TSHALAGDLALERECMVLAE | < -0.25 |
| QILKRVWQFGSRAVDVQLFT | < -0.25 |
| FWSVVTCGTPR | < -0.25 |
| LGERRIVVCETSLRHN | < -0.25 |
| RSAIWAFEPACGPPEFGGRF | 0.115 |
| VGVCACAL | < -0.25 |
| VEAVFAGGTF | < -0.25 |
| RCAHQG | < -0.25 |
| RYRSSHRK | < -0.25 |
| VNH | < -0.25 |
| GWLGCLPSCGRGFCFRRLSK | < -0.25 |
| VLNVRVYGDECQPP | < -0.25 |
| GALE | < -0.25 |
| KFRIQQVRGFPASNIASPP | < -0.25 |
| INCAPSSQVCAAQGWKNWLY | -0.201 |
| VTERVRYRMYLPPALRYRAS | -0.231 |
| DRCASRFETDSTDWSVSRGM | < -0.25 |
| LGRPGSYVARGRRTYVLDVL | -0.243 |
| ALSRPPRNVRR | < -0.25 |
| RVRVQPFGFMIFRMSFAGND | < -0.25 |
| CGSFTNVERCSYCLGESSFD | < -0.25 |
| LGVVVIGHIGIVLYIGGPHR | < -0.25 |
| ELEYMGPFDRFDLTTRYGGV | -0.2 |

| Substance | growth estimate |
| --- | --- |
| ISI | -0.244 ± 0.0081 |
| SSSWSWHMGDHFPLKGPIIS | < -0.25 |
| DRKH | < -0.25 |
| LGRLRSHFE | < -0.25 |
| PLKWNAPFGLGFLFRSIIRV | < -0.25 |
| VPSSGAFRSCGNIETTIHKV | < -0.25 |
| QSHSDTPQSAWGGTLL | < -0.25 |
| ASKGTVRARLCLSDLLSAWA | < -0.25 |
| STRF | < -0.25 |
| LAKVGLGHLYIGYRCVERPA | < -0.25 |
| LNMGVGFQSKGSLSCARRLV | < -0.25 |
| ARVGRSLALP | < -0.25 |
| SDMKRQMDES | < -0.25 |
| QRCSNKRRGASRGKWL | < -0.25 |
| NWN | < -0.25 |
| EGRVTHLSCDLLSESGGFSL | < -0.25 |
| CTPEFPELLGTLFWTNKRTL | < -0.25 |
| EQDLERVRCNKRPPQRLGVM | < -0.25 |
| SLSQPRVWARRHV | < -0.25 |
| PFDRLT | < -0.25 |
| RNAGLRVRSRSRGSAYENPP | < -0.25 |
| PTIHGG | < -0.25 |
| WVAGSDPDSYQGGGCYASVG | < -0.25 |
| AMESASPGPLSVKCSPHRPV | < -0.25 |
| RRCRQSQRCTWKRL | -0.145 |
| VVRRIAK | < -0.25 |

Part of the list above, with bars between the fields:
Substance | growth estimate
DRKH | < -0.25
PLKWNAPFGLGFLFRSIIRV | < -0.25
ASKGTVRARLCLSDLLSAWA | < -0.25
LNMGVGFQSKGSLSCARRLV | < -0.25
PTIHGG | < -0.25

Next results follow.

| Substance | growth estimate |
| --- | --- |
| NIRYGCRSL | < -0.25 |
| GIRCRRSRCVGILNCWYVP | < -0.25 |
| VVKRGGRILRCFLVTWAQLR | < -0.25 |
| RRGMESVVMEHLSLIVLPHQ | < -0.25 |
| MDGDSNGVI | < -0.25 |
| YRLAQCNAMRG | < -0.25 |
| CWWRRESIS | < -0.25 |
| ILGSDIG | < -0.25 |
| RAMFGSMPPGIRLDR | < -0.25 |
| CVPIKEVVQKFVLTLDFAHL | < -0.25 |
| FPGISSEASA | < -0.25 |
| SMGQRNF | < -0.25 |
| LIVPPWAIMLHFFCPMGSE | < -0.25 |
| LKGKIDFTAAI | < -0.25 |
| SISASFGCI | < -0.25 |
| YFRF | -0.0679 |
| CVRTKSGGGPLQARSINTVA | < -0.25 |
| EIGVGRDKFLGGG | < -0.25 |
| PVVKDTSEGRA | < -0.25 |
| LQGSRQIPALREFTCPSTNC | < -0.25 |
| GEKVAYNRSASQDGARLRGR | < -0.25 |
| IGPPLGNIGPRVLRSRSYRP | < -0.25 |
| LWGEIGKAWDARLEVE | < -0.25 |
| TGQ | -0.243 |
| RAVERCVVR | < -0.25 |
| ASGA | < -0.25 |

| Substance | growth estimate |
| --- | --- |
| GIGITWLEQPRNYSLGRVLT | < -0.25 |
| PVILTKPGHLLFEIIETDLA | < -0.25 |
| NGTDRISRLNICDL | < -0.25 |
| TTFTEILAHRRHCTMEQSNT | < -0.25 |
| NGHTVRLVWGQVRLV | < -0.25 |
| FAPRTGWGTALKVVSTSVSA | < -0.25 |
| TSGGSCCVARWLLPDQNDLY | < -0.25 |
| GIQCAFQVASGYSIEHPGL | < -0.25 |
| TCVEGQALRIQGVRPRAGGA | < -0.25 |
| SESHLLMFASR | < -0.25 |
| SATLCMTSRVSLLVRHTESR | < -0.25 |
| VNGLYPWRNVA | < -0.25 |
| RSRCSEVYVW | < -0.25 |
| PDSET | < -0.25 |
| HRAEVSDAIVEKRQLRQLGR | -0.176 |
| NWVAA | < -0.25 |
| CVVSRVSMLQNLMKRQLVSV | < -0.25 |
| TSIVITSQALVPILPLVRTP | < -0.25 |
| RQIKGWDEMRAFVCMRVCFP | < -0.25 |
| LCWNLLLVA | < -0.25 |
| SVACALRETTYPSLTMVDRW | < -0.25 |
| AAMCLQSAFRDQYAVESCLS | < -0.25 |
| VPAYRASHKPIGP | < -0.25 |
| LWPRLVPAWPTDTRSPGSVR | < -0.25 |
| GDHRQSTQRVGSSRSMRGK | < -0.25 |
| LRGYYNPRFKVASNA | < -0.25 |

| Substance | growth estimate |
| --- | --- |
| LNFWECDAGRRVRA | < -0.25 |
| ICPGIGGGGSRQNRVNVMAS | < -0.25 |
| SAIC | < -0.25 |
| LSGNYGGLGALTDQADGYYP | < -0.25 |
| SVDRNSWKY | < -0.25 |
| AEFRNA | < -0.25 |
| NNASLHT | < -0.25 |
| VVGTLWVFEVQTLRLGVCPR | < -0.25 |
| HPHQRLYAKMRGETTGEV | < -0.25 |
| NRVASVVGAATVTNQSSMRP | < -0.25 |
| APRLSALGTVGFCLARHGRT | < -0.25 |
| KQATGKGPKIMGSGGPAMTT | < -0.25 |
| EQNSTVMG | < -0.25 |
| VGNEAPQHSHINWRVLAS | < -0.25 |
| LECLLSAT | < -0.25 |
| RGKKGHVSARLPF | < -0.25 |
| WSHQLL | < -0.25 |
| DMAICERTDPQGGFLQPLKR | < -0.25 |
| CSAYSPSAESSWLGIGKTWC | < -0.25 |
| IIEDSVLM | < -0.25 |
| MASDRAWRDRRQAWIF | -0.141 |
| STARPSKVSPMPSSGASFSL | < -0.25 |

Quoted from the listing.
LNFWECDAGRRVRA – growth estimate: < -0.25
VVGTLWVFEVQTLRLGVCPR – growth estimate: < -0.25
NNASLHT – growth estimate: < -0.25
DMAICERTDPQGGFLQPLKR – growth estimate: < -0.25
IIEDSVLM – growth estimate: < -0.25
